# Source: US20230220410A1, “PLANTS TOLERANT TO BROAD RANGE OF PATHOGENS” (RAMOT AT TEL-AVIV UNIVERSITY LTD., priority 2020, published 2023)
# What was measured:
# [1] = test system: gene expression in I3CT1^8098 (M8098) roots; experiment: RNA-Seq transcript profiling after I3C treatment, I3CT1^8098 (M8098); type: in vivo, Arabidopsis thaliana; settings: M8098, untreated vs 200 μM I3C, 2 hours
# [2] = test system: gene expression in Col-0 (WT) roots; experiment: RNA-Seq transcript profiling after I3C treatment, WT; type: in vivo, Arabidopsis thaliana
# [3] = untreated vs 200 μM I3C, 2 hours
# [4] = untreated vs 400 μM I3C, 2 hours
smiles,measurement,setting,value
"OCc1c[nH]c2ccccc12 [I3C, Indole 3-carbinol]","number of genes with modified expression, Down, NT/200",[1],1910
same,"number of genes with modified expression, Up, NT/200",[1],3222
same,number of genes involved in root development down-regulated,"[2]; 200 or 400 μM I3C, GO:0022622",66
same,"number of genes with modified expression, Down, 200/400",[2]; 200 vs 400 μM I3C,31
same,"number of genes with modified expression, Up, 200/400",[2]; 200 vs 400 μM I3C,84
same,"number of genes with modified expression, Down, NT/200",[2]; [3],2904
same,"number of genes with modified expression, Up, NT/200",[2]; [3],3405
same,"number of genes with modified expression, Down, NT/400",[2]; [4],3697
same,"number of genes with modified expression, Up, NT/400",[2]; [4],4134
